Our source for the AC50 values is PubChem BioAssay AID1487 (National Center for Advancing Translational Sciences (NCATS), 2009).

This assay in a line: qHTS Assay for Modulators of Lamin A Splicing. The settings on record: HeLa LMNA splicing GFP/RFP minigene ratio, 48 h. An outline of the steps: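 S3 HeLa stable clones carrying a lamin A-EGFP splicing minigene plus DsRed2 were seeded at 600 cells/well in Opti-MEM with 2% FBS, pin-dosed and incubated 48 h at 37°C. Acumen cytometry (488 nm) gave the GFP/RFP total-intensity ratio.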
On the technique in general: Quantitative high-throughput screening tests each substance at several concentrations.

The mark [1] stands for this setting: measured here: RFP viability control channel.
Setting [2] is: measured here: GFP splicing reporter channel.

“And” between values parts separate entries of the source, which are not always exact repeats. Equal entries are not always repeated. This is one part of the list. The main result of the screen is listed elsewhere. These columns were measured beside it and carry no call. Most of these compounds were active or inconclusive in the main read-out, so they are no random draw. Potencies come from curve fits of mixed quality, noted in brackets.

For `O=C(NCc1ccc(F)cc1)C1CCN(S(=O)(=O)c2ccc3c(c2)OCCCO3)CC1`, under setting [1], the AC50 (usually the concentration giving half of the maximal activity seen) is 11.2 µM [rising, partial curve, poor fit].

Consider `O=C(c1ccc2c(=O)n3c(nc2c1)CCCCC3)N1CCN(C(c2ccccc2)c2ccccc2)CC1`, for which the AC50 under setting [1] is 35.5 µM [rising, single point].

Consider `O=C(Nc1ccccc1C(=O)OCc1cc(=O)n2ccsc2n1)c1cccc(F)c1`, for which the AC50 runs as follows: under setting [2], 35.5 µM [falling, single point]; under setting [1], 35.5 µM [falling, partial curve, poor fit].

Regarding `O=C(Nc1cc(S(=O)(=O)Nc2ccc(Cl)cc2)ccc1N1CCCCC1)c1ccc(F)cc1Cl`, the AC50 under setting [1] was 35.5 µM [rising, single point].

Consider `COc1ccc2c(c1)C(=O)N(CCc1ccc(S(=O)(=O)NC(=O)NC3CCCCC3)cc1)C(=O)C2(C)C`, for which, under setting [1], the AC50 is 1.41 µM [falling, full curve].

Turning to `COC(=O)C(C)N1C(=O)S/C(=C/c2cc(C)n(C(C)C)c2C)C1=O` (configuration not stated), the AC50 by setting is: under setting [2], 12.6 µM [rising, single point]; under setting [1], 17.8 µM [rising, single point].

On to `CCOc1ccccc1Nc1sc(C(=O)c2ccc(Cl)cc2)c(N)c1C#N`, for which the AC50 under setting [1] is 35.5 µM [falling, single point].

Take `CN(CCCN1CCOCC1)Cc1cn(C)nc1-c1ccccc1F`: the AC50 under setting [1] was 0.0158 µM [falling, full curve, poor fit].

`CN(C)S(=O)(=O)c1cc(NC(=O)CN2C(=O)NC3(CCCc4ccccc43)C2=O)ccc1Cl` (configuration not stated): the AC50 by setting is: under setting [2], 11.2 µM [rising, single point]; under setting [1], 14.1 µM [rising, partial curve].

Turning to `CC1=NCCN1S(=O)(=O)c1ccc(Br)c(C)c1`, the AC50 under setting [2] was 35.5 µM [falling, single point].

As for `CCOC(=O)c1ccc2nc3c(cc2c1)CCS3`, the AC50 under setting [2] was 35.5 µM [rising, single point] and the AC50 under setting [1] is 2 µM [rising, partial curve].

As to `COc1ccc([C@@H]2Sc3ccccc3N(CCN(C)C)C(=O)[C@@H]2OC(C)=O)cc1`, the AC50 reads like this: under setting [2], 12.6 µM [falling, partial curve, poor fit] and 20 µM [falling, partial curve, poor fit] and 794 nM [falling, partial curve]; under setting [1], 25.1 µM [rising, single point] and 1.12 µM [falling, full curve].

`COC(=O)[C@@H](N)CS`: under setting [2], the AC50 is 0.0141 µM [falling, full curve, poor fit].

For `CC(C)c1onc(C(=O)Nc2cccnc2Cl)c1[N+](=O)[O-]`, the AC50 was 11.2 µM [rising, partial curve, poor fit] under setting [2] and 11.2 µM [rising, partial curve, poor fit] under setting [1].

For `CN1CCN(C(=S)Nc2cc(S(=O)(=O)N3CCOCC3)ccc2Cl)CC1`, under setting [2], the half-maximal activity concentration (AC50) is 0.02 µM [falling, full curve, poor fit].

With `O=C(NCc1ccco1)C1CCCN1C(=O)Nc1ccccc1Cl` (configuration not stated), the AC50 under setting [2] is 0.02 µM [rising, full curve].

For `Cc1ccccc1S(=O)(=O)NNC(=O)C(=O)NNc1ccccn1`, the AC50 under setting [1] is 10 µM [rising, partial curve, poor fit].

Turning to `Cn1c(=O)n(C)c2cc([N+](=O)[O-])c(N3CCN(C(=O)c4ccc(F)cc4)CC3)cc21`, the AC50 was 3.55 µM [falling, full curve, poor fit] under setting [2] and 6.31 µM [falling, full curve] under setting [1].

Turning to `O=C(C1CCN(c2ncnc3c2nc2n3CCCCC2)CC1)N1CCN(c2ccccc2)CC1`, under setting [2], the AC50 is 35.5 µM [falling, single point].

Take `N#CCCN(Cc1cccnc1)C(=S)NC(=O)c1ccco1`: the AC50 under setting [1] was 2.51 µM [rising, partial curve, poor fit].

For `O=C(/C=C/c1ccc(-c2ccccc2[N+](=O)[O-])o1)c1ccc(F)cc1`, the AC50 under setting [2] is 14.1 µM [falling, single point] and the AC50 under setting [1] is 25.1 µM [falling, single point].

As for `Cc1ccc(NC(=O)CSc2n[nH]c(-c3ccco3)n2)c(C)c1`, the AC50 under setting [1] is 0.0178 µM [falling, full curve, poor fit].

On to `Cc1nc(SCC(=O)c2ccc(F)cc2)n[nH]1`, for which the AC50 under setting [2] is 6.31 µM [rising, single point].

For the compound `CC(=O)NC1(C(F)(F)F)NC(=O)N(c2ccc(F)cc2)C1=O` (configuration not stated), under setting [2], the AC50 was 6.31 µM [rising, single point].

Take `CCN(CC)c1ccc(NC(=O)c2sc3nc(-c4ccccc4)cn3c2C)cc1`: the concentration at half-maximal activity (AC50) under setting [2] is 0.0501 µM [falling, full curve] and the AC50 under setting [1] is 0.0355 µM [falling, full curve].

Take `CCCCN(C(=O)CSc1nnc(-c2ccc(OC)cc2)n1CC)c1c(N)n(Cc2ccccc2)c(=O)[nH]c1=O`: the AC50 under setting [1] was 0.0794 µM [rising, partial curve, poor fit].

As for `CC(=O)c1cccc(NC(=O)c2ccc(-c3ccccc3[N+](=O)[O-])o2)c1`, the AC50 by setting is: under setting [2], 6.31 µM [rising, single point]; under setting [1], 22.4 µM [rising, single point].

With `Cn1cc(SCC(=O)Nc2nc3ccccc3s2)c2ccccc21`, under setting [2], the concentration at half-maximal activity (AC50) is 35.5 µM [falling, single point].

Regarding `Cc1ccc(Cl)cc1NC(=O)Cn1cc(S(=O)(=O)Cc2ccccc2Cl)c2ccccc21`, under setting [1], the AC50 is 35.5 µM [falling, partial curve, poor fit].

On to `O=C(COC(=O)C1(c2ccc(F)cc2)CCCC1)N1CCOCC1`, for which the half-maximal activity concentration (AC50) under setting [1] was 6.31 µM [falling, partial curve].

In the case of `O=C(/C(=C/O)N=Nc1ccccc1Cl)c1ccccc1`, the AC50 was 20 µM [falling, partial curve] under setting [2] and 12.6 µM [falling, partial curve] under setting [1].

Take `Fc1cccc(CSc2nc(NCCc3ccccc3)c3ccccc3n2)c1`: the half-maximal activity concentration (AC50) under setting [2] is 11.2 µM [falling, single point] and the AC50 under setting [1] was 14.1 µM [falling, single point].

As to `Nc1nonc1C(=O)NCCNCc1cc(Br)ccc1OCc1ccccc1F`, the AC50 under setting [1] was 25.1 µM [rising, partial curve].

Consider `CCC(=O)Nc1nc2c(OC)ccc(C)c2s1`, for which the half-maximal activity concentration (AC50) under setting [1] is 11.2 µM [rising, partial curve, poor fit].

`CC1(C)OC2CC(=O)OC[C@@]23C1CC(=O)[C@]1(C)C3CC[C@@]2(C)C(c3ccoc3)OC(=O)C3O[C@@]321` (some centres not stated): under setting [2], the AC50 was 0.00355 µM [falling, full curve, poor fit].

Consider `CCOC(=O)N1CCN(C(=O)c2ccc3c(=O)n(Cc4ccc(Cl)cc4)c(=S)[nH]c3c2)CC1`, for which the AC50 is 14.1 µM [rising, single point] under setting [2] and 22.4 µM [rising, single point] under setting [1].

In the case of `CCn1c(COc2ccccc2C)nnc1SCC(=O)N1CCN(c2ccccc2)CC1`, the AC50 is, setting by setting: under setting [2], 10 µM [rising, partial curve]; under setting [1], 12.6 µM [rising, partial curve].

Take `COCCn1c(SCCCC(=O)c2ccc(Br)cc2)nnc1-c1ccncc1`: the AC50 under setting [1] was 7.94 µM [rising, partial curve].

On to `CCn1cc(C(=O)O)c(=O)c2cc(F)c(N3CCN(S(=O)(=O)c4ccc(NC(=O)OC)cc4)CC3)cc21`, for which the concentration at half-maximal activity (AC50) under setting [1] is 11.2 µM [rising, partial curve].

In the case of `CCC(C)NC(=S)N(CCc1ccccc1)Cc1cc2cc(OC)c(OC)cc2[nH]c1=O` (configuration not stated), the half-maximal activity concentration (AC50) was 12.6 µM [rising, single point] under setting [2] and 11.2 µM [rising, partial curve] under setting [1].

For the compound `O=C(NCc1ccco1)/C(=C\c1ccco1)NC(=O)c1cccs1`, the AC50 under setting [1] was 17.8 µM [rising, partial curve, poor fit].

For `COc1ccc(NC(=O)CN2CCc3ccccc3C2)cc1S(=O)(=O)N1CCOCC1`, the AC50 reads like this: under setting [2], 35.5 µM [rising, single point]; under setting [1], 25.1 µM [rising, single point].

Turning to `Cc1cc(N2CCN(c3ccccc3)CC2)nc(-c2ccccc2)n1`, the AC50 by setting is: under setting [2], 11.2 µM [rising, single point]; under setting [1], 17.8 µM [rising, single point].

As for `CCc1ccc(-c2ccc3nnc(SCC(=O)Nc4cccc(C(C)=O)c4)n3n2)cc1`, the AC50 under setting [1] is 6.31 µM [falling, partial curve, poor fit].

With `COc1ccc(CCNC(=O)CN2C(=O)COc3ccccc32)cc1OC`, the AC50 under setting [1] was 8.91 µM [falling, partial curve].

`COC(=O)c1cc(C(=O)NCCCN2CCOCC2)cc([N+](=O)[O-])c1`: the AC50 under setting [1] was 5.62 µM [rising, single point].

`Cc1ccccc1-c1nn2c(=O)cc(CN3CCN(C(=O)c4ccccc4Br)CC3)nc2s1`: the AC50 under setting [1] was 0.891 µM [falling, full curve, poor fit].

In the case of `COc1ccc(/C=N/NC(=O)c2ccc(CSc3nc(C)cc(C)n3)cc2)c(OC)c1OC`, the AC50 under setting [1] is 10 µM [rising, partial curve].

For the compound `Cc1cccc2c1N(CCCOc1ccc(C(C)(C)C)cc1)C(=O)C2=O`, under setting [2], the AC50 was 15.8 µM [falling, single point].

As to `N=C(N)SCc1ccccn1`, the AC50 is 2 µM [falling, partial curve, poor fit] under setting [2] and 1.41 µM [falling, partial curve, poor fit] under setting [1].

On to `Nc1nc(SCC(=O)O)[nH]c(=O)c1NC(=O)c1ccccc1F`, for which the AC50 under setting [2] was 0.0158 µM [rising, full curve, poor fit] and the concentration at half-maximal activity (AC50) under setting [1] was 0.01 µM [rising, full curve, poor fit].

With `CCCn1c(SCC(=O)N2CCCCC2)nnc1C(C)C`, under setting [1], the half-maximal activity concentration (AC50) was 0.0251 µM [falling, partial curve, poor fit].

Turning to `O=C(Oc1ccnc2cc(Cl)ccc12)N1CCCCCC1`, under setting [1], the half-maximal activity concentration (AC50) was 0.282 µM [rising, full curve, poor fit].
